Measured values reported in PMC11392529.
Results are given in words; binding and its absence hold for the method and conditions named. Binding seen in cells or lysates may run through a third protein. Some results given as binding are weak or reduced against the parent protein; the word gives no strength.

Protein sequences, listed by entry. Tags and fused reporters are not part of them. Residues count along the entry.
UniProt P52480: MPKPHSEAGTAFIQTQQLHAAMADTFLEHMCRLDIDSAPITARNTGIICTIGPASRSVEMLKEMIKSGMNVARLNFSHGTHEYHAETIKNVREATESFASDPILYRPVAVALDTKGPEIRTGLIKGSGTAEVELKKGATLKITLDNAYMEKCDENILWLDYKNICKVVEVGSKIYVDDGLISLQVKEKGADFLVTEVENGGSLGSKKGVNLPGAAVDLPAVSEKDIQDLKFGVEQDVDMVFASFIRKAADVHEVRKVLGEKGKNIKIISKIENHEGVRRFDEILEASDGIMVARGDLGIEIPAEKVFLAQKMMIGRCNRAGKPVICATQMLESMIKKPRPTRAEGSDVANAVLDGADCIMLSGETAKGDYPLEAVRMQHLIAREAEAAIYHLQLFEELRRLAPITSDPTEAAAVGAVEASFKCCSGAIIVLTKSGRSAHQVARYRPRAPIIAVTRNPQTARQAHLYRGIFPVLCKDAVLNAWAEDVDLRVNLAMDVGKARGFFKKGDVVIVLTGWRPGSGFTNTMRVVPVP
UniProt P01108: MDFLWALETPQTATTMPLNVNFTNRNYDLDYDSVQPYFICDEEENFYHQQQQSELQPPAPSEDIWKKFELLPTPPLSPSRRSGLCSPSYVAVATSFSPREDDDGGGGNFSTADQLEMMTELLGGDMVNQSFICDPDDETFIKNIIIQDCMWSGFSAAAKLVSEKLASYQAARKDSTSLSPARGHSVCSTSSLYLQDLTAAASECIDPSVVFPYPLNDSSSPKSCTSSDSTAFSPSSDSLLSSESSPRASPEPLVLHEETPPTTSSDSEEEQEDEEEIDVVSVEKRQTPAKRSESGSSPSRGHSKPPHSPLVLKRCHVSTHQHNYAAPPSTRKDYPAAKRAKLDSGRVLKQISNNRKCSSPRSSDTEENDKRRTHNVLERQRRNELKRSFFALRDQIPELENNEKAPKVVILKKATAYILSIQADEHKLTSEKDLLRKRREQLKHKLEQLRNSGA
UniProt P25799, residues 1-431: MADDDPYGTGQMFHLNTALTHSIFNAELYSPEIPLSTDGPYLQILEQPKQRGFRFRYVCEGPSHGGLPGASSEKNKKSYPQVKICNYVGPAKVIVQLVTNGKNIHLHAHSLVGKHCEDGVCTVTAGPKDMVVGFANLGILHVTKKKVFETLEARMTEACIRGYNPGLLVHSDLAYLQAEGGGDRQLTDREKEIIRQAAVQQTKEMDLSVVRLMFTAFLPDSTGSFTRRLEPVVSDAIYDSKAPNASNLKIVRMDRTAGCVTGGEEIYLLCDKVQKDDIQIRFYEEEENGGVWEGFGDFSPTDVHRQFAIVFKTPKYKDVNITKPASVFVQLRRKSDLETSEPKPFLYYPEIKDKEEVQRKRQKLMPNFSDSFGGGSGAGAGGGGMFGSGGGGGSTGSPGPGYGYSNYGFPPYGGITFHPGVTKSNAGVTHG
UniProt Q04207: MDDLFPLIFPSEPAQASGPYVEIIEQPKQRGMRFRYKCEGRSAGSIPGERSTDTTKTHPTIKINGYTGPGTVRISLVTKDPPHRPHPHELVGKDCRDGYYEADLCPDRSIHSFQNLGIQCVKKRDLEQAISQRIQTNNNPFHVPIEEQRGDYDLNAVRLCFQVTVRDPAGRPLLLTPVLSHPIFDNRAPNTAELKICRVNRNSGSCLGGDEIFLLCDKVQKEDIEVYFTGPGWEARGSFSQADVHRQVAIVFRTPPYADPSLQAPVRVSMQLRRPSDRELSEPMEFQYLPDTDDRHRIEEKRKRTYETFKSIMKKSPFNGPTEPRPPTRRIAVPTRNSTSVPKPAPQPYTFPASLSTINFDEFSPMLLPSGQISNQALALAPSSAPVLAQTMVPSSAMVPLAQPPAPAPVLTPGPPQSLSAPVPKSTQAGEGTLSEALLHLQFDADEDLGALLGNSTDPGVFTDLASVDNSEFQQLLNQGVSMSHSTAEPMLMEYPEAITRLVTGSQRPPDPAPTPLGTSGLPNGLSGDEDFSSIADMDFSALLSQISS

molecular target: Pyruvate kinase M2 (PKM2), endogenous in primary astrocytes (mouse (endogenous in primary astrocytes)) (UniProt P52480); assay: co-IP; endogenous proteins in primary astrocyte lysate; antibody-conjugated Dynabeads M-270 Epoxy, 4 °C for 1 hr, western blotting; also in astrocytes overexpressing TRIM21 (Figure 6E)

binding, binds:
c-myc, endogenous in primary astrocytes (from UniProt P01108 1-454)
p50 subunit of NF-κB, endogenous in primary astrocytes (from UniProt P25799 1-431)
p65 subunit of NF-κB, endogenous in primary astrocytes (from UniProt Q04207 1-549)
